Data reported in patent US20190345446A1 (BROAD INSTITUTE, published 2019).
No constants are given. Whether binding was seen depends on the method and setting. Binding seen in cells or lysates may run through a third protein. Some entries that bind do so weakly or less than the wild type.

What was measured:
[1] = biological target: T1, Fas (mouse death receptor Fas, endogenous in EL4 cells and primary mouse CD4+ T cells) (mouse) (UniProt P25446); assay: co-immunoprecipitation (discussion of the results)
T1 sequence (looked up): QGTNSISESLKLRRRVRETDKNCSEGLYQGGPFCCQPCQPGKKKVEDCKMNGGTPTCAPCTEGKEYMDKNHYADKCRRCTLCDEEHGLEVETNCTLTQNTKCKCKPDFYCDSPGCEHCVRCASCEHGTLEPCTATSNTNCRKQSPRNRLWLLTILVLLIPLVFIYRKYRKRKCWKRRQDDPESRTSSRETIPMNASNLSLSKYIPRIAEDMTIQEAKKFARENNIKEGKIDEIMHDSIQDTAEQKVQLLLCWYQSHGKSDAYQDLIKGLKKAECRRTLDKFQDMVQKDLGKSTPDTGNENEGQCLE

[2] = biological target: T1, Fas (mouse death receptor Fas, endogenous in EL4 cells and primary mouse CD4+ T cells) (mouse); assay: co-immunoprecipitation with anti-Fas Ab from primary mouse CD4+ T cells, unstimulated or stimulated with multimerized FasL; Western blot
[3] = biological target: T1, Fas (mouse death receptor Fas, endogenous in EL4 cells and primary mouse CD4+ T cells) (mouse); assay: co-immunoprecipitation, legend of FIGS. 5A-5E (panels 5D, 5E)
[4] = biological target: T1, Fas (mouse death receptor Fas, endogenous in EL4 cells and primary mouse CD4+ T cells) (mouse); assay: co-immunoprecipitation from EL4 cells stimulated with biotinylated anti-Fas Ab and streptavidin; Protein G beads; Western blot

Measured: binding

B1: STAT1 (mouse signal transducer and activator of transcription 1, endogenous) (protein, UniProt P42225 2-749, looked up)
chain: SQWFELQQLDSKFLEQVHQLYDDSFPMEIRQYLAQWLEKQDWEHAAYDVSFATIRFHDLLSQLDDQYSRFSLENNFLLQHNIRKSKRNLQDNFQEDPVQMSMIIYNCLKEERKILENAQRFNQAQEGNIQNTVMLDKQKELDSKVRNVKDQVMCIEQEIKTLEELQDEYDFKCKTSQNREGEANGVAKSDQKQEQLLLHKMFLMLDNKRKEIIHKIRELLNSIELTQNTLINDELVEWKRRQQSACIGGPPNACLDQLQTWFTIVAETLQQIRQQLKKLEELEQKFTYEPDPITKNKQVLSDRTFLLFQQLIQSSFVVERQPCMPTHPQRPLVLKTGVQFTVKSRLLVKLQESNLLTKVKCHFDKDVNEKNTVKGFRKFNILGTHTKVMNMEESTNGSLAAELRHLQLKEQKNAGNRTNEGPLIVTEELHSLSFETQLCQPGLVIDLETTSLPVVVISNVSQLPSGWASILWYNMLVTEPRNLSFFLNPPCAWWSQLSEVLSWQFSSVTKRGLNADQLSMLGEKLLGPNAGPDGLIPWTRFCKENINDKNFSFWPWIDTILELIKNDLLCLWNDGCIMGFISKERERALLKDQQPGTFLLRFSESSREGAITFTWVERSQNGGEPDFHAVEPYTKKELSAVTFPDIIRNYKVMAAENIPENPLKYLYPNIDKDHAFGKYYSRPKEAPEPMELDDPKRTGYIKTELISVSEVHPSRLQTTDNLLPMSPEEFDEMSRIVGPEFDSMMSTV
binds: all assays above
